# Source: PMC6720540
# By UniProt entry, the sequences of proteins in these tests, tags left out.
# UniProt P01106: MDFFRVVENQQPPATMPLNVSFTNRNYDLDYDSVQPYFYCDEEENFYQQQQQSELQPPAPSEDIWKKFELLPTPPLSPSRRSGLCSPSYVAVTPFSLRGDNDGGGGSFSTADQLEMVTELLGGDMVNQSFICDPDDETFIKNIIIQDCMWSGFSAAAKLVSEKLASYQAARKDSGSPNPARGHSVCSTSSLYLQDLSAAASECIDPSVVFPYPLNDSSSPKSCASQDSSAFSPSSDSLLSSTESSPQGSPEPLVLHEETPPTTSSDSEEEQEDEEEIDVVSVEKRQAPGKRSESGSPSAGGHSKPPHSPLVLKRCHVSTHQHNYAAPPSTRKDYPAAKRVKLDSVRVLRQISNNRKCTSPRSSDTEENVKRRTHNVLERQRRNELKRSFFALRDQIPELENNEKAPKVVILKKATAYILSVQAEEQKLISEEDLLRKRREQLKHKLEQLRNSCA
# UniProt P46527: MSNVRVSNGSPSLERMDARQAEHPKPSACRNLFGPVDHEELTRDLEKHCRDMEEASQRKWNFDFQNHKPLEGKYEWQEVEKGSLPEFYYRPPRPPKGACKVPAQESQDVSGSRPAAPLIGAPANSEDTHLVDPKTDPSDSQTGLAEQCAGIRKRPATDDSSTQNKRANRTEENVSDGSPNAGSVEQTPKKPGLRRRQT
# Results are given in words; binding and its absence hold for the method and conditions named. Binding seen in cells or lysates may run through a third protein. Some results given as binding are weak or reduced against the parent protein; the word gives no strength.
# Target: c-Myc (human (endogenous in Huh7)) (UniProt P01106)
# Experiment: co-IP; endogenous proteins of Huh7 cells, with or without Pyrogallol; NP-40 lysis buffer, 300 ug of proteins incubated overnight with c-Myc antibody at 4 C, protein A/G Plus-beads, immunoblotting with the indicated antibodies
substance,measurement,value
p27 (Cyclin-dependent kinase inhibitor 1B) (from UniProt P46527 1-198),binding,binds
